In the supplement of paper PMC10849652:
Some of the results follow.

Protein sequences, listed by entry. Tags and fused reporters are not part of them. Lines headed by an entry give the natural chain unless they say otherwise; changes in a name come on top.
UniProt Q06323: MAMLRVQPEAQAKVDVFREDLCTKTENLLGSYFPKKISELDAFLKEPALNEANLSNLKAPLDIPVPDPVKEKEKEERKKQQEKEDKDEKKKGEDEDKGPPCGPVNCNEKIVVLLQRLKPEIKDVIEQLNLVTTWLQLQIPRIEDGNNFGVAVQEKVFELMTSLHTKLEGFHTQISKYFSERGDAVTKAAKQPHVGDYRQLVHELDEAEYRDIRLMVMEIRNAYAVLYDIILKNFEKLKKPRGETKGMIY
UniProt Q9BT73: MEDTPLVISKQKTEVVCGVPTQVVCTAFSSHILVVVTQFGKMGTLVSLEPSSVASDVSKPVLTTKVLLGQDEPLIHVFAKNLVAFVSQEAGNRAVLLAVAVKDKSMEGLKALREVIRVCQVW
UniProt Q9H939: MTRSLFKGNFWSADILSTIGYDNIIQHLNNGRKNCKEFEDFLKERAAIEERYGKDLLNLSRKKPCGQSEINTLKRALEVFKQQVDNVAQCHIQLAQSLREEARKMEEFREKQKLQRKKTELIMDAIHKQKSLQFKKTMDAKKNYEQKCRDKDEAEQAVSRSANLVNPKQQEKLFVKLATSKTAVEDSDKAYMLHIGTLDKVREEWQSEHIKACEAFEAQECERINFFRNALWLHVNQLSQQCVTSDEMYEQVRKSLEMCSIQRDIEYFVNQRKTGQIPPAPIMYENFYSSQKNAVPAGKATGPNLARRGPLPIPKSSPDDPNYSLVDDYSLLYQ
UniProt Q15257: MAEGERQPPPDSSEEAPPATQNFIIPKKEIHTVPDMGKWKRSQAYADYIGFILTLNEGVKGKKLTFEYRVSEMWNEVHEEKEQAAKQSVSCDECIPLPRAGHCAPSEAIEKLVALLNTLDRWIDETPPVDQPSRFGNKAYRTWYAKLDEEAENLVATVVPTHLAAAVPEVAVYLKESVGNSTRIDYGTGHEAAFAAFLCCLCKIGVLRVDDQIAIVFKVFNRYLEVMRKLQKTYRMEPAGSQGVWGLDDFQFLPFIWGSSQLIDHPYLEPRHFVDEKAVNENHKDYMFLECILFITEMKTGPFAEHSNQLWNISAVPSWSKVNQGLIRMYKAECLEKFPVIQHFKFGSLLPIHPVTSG
UniProt P49720: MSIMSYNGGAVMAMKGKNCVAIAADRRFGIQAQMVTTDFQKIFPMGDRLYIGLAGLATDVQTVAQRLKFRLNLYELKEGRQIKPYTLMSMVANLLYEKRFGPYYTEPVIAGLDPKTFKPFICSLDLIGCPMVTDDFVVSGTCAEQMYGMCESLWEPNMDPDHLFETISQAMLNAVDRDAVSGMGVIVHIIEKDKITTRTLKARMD
UniProt Q16401: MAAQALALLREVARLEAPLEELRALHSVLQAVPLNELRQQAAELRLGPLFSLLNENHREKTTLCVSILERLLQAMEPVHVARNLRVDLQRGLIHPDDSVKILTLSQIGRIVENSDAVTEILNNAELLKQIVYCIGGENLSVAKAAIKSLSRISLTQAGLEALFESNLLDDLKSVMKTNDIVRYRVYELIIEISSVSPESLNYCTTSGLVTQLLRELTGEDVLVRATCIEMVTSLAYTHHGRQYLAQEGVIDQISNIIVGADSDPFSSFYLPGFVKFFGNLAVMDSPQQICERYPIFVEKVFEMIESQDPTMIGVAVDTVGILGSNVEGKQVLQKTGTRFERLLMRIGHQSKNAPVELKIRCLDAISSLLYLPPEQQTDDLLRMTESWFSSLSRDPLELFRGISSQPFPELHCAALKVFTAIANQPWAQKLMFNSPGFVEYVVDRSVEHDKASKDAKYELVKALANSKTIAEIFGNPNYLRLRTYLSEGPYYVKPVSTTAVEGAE
UniProt Q13332: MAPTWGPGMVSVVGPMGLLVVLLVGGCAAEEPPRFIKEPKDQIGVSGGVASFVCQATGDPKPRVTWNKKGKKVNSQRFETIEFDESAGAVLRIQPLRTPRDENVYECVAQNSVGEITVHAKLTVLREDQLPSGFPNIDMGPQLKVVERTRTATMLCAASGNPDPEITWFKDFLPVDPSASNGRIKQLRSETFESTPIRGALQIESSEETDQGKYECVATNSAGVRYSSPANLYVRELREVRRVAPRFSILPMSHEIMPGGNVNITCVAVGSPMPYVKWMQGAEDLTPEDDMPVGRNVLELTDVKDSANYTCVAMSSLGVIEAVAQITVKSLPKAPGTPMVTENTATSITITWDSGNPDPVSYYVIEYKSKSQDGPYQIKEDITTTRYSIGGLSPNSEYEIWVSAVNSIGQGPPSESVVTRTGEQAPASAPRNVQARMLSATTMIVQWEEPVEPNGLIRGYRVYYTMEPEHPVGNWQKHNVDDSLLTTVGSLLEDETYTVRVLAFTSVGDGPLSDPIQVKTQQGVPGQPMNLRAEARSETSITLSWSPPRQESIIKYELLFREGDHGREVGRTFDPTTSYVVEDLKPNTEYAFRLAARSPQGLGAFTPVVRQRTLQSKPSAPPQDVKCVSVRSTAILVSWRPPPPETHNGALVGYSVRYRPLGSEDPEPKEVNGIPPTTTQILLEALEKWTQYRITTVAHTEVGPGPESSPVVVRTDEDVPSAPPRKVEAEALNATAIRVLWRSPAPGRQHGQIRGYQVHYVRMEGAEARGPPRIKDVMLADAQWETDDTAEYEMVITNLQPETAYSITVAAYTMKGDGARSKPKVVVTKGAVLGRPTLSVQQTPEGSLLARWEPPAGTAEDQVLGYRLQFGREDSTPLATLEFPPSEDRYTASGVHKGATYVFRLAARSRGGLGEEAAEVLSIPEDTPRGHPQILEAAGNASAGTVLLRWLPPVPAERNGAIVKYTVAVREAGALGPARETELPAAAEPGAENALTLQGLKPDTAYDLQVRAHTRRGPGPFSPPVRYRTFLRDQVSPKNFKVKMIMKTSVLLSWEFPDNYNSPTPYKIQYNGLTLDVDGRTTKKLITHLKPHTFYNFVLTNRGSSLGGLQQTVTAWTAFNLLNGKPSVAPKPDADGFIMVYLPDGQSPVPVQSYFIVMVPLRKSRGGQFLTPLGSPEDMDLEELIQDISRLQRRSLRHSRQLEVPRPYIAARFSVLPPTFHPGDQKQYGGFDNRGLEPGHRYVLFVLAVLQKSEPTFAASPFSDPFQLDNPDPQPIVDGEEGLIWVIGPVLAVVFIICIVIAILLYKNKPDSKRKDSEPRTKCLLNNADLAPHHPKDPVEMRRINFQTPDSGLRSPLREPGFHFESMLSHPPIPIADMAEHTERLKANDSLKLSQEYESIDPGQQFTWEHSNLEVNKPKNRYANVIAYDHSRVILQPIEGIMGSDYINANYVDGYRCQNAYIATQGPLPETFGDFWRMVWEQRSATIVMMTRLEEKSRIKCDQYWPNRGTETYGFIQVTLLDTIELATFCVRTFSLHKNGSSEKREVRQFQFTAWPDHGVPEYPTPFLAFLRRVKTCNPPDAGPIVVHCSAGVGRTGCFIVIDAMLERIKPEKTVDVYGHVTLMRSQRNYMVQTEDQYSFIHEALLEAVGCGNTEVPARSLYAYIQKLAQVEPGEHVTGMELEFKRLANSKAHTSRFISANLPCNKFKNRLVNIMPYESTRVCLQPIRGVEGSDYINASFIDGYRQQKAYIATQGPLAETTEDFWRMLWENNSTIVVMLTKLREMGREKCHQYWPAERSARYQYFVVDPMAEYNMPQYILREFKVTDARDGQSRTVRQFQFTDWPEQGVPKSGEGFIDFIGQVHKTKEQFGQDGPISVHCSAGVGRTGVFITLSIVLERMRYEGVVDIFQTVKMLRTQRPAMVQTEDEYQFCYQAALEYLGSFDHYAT
UniProt Q13308: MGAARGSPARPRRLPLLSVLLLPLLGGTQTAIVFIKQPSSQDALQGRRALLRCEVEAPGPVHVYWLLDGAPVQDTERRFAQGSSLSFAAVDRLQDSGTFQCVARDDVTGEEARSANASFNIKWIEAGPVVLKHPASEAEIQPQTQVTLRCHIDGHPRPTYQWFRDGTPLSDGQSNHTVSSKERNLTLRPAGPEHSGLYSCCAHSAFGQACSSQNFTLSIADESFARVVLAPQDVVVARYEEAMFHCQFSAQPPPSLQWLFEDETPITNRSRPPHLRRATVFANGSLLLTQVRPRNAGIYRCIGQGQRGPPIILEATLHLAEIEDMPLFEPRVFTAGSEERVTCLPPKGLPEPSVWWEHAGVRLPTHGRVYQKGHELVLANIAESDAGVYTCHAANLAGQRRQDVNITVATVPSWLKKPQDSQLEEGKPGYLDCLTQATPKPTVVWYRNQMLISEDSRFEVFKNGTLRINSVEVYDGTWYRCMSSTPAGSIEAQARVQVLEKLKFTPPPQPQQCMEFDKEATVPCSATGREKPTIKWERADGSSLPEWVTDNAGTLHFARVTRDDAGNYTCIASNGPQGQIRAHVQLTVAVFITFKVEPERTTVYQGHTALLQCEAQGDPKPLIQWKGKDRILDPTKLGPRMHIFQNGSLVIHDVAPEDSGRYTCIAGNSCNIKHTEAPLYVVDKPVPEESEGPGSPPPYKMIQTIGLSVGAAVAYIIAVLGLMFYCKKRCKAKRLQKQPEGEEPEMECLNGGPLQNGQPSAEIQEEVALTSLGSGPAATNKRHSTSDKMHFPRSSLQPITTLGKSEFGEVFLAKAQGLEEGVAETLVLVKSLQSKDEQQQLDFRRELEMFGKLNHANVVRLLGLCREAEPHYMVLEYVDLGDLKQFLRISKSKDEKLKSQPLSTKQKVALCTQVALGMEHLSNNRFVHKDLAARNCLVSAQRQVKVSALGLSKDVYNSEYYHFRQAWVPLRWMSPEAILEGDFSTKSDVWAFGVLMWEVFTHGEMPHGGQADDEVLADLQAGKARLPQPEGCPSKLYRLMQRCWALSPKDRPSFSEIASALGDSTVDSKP
UniProt Q9UNM6: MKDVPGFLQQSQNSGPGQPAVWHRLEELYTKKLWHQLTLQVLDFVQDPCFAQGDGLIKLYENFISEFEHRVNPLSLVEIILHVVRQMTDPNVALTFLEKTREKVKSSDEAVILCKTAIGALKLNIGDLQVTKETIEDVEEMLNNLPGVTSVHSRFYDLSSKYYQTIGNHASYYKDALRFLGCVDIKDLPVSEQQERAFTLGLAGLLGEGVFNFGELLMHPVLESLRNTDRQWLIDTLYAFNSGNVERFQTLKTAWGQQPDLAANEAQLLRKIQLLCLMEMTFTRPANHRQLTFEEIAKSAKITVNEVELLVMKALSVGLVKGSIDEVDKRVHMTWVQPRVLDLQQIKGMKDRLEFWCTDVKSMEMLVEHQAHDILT
UniProt Q3MIT2: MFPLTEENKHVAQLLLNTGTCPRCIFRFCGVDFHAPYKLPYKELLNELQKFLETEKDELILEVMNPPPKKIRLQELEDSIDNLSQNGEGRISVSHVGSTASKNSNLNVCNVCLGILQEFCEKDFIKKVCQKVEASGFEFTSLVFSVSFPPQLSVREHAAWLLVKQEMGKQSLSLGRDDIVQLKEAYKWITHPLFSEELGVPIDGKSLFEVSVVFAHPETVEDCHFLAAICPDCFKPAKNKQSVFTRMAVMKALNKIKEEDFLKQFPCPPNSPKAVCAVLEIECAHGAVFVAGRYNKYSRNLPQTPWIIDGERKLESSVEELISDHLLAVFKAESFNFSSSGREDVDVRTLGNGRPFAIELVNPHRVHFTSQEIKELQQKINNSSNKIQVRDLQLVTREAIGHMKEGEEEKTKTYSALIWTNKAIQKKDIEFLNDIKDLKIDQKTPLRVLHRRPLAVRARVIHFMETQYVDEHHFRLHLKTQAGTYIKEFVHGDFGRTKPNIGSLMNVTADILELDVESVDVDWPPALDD
UniProt Q9Y606: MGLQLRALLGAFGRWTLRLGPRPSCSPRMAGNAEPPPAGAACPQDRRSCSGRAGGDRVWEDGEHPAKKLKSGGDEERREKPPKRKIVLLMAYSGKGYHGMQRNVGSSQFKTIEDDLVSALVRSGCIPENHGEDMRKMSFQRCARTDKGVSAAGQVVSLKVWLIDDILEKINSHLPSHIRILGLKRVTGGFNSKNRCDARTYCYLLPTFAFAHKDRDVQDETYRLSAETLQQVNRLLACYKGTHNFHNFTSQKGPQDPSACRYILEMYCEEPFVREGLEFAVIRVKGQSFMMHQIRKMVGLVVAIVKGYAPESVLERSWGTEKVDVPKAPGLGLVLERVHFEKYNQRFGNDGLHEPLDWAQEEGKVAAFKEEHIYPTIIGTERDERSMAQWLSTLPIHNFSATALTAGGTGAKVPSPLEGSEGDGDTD
UniProt P62195, whole entry, looked up: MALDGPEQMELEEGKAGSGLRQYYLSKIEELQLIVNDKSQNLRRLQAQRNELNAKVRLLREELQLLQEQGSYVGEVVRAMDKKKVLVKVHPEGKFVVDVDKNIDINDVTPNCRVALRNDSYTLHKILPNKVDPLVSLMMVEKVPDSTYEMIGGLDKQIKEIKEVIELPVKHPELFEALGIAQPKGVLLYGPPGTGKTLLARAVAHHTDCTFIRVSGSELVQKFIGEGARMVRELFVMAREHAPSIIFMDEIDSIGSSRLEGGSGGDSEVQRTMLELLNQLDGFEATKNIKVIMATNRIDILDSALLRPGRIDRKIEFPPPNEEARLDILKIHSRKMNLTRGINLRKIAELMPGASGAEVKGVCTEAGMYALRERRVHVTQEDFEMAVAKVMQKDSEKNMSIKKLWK

Tests used:
Assay in all cases: log2 fold change, soluble protein after heating vs DMSO (PISA); higher = thermal stabilisation; K562 lysate, 10 uM; active = over 0.2 and 3.5 SD of the protein, either way, in both replicates (recomputed)
[1] = compound: C1=CC=C(C=C1)[C@H](COC2=CC3=C(C=C2)NC(=O)N3)NC(=O)C4=CC=CN(C4=O)CC5=CC(=C(C=C5)F)F
How it was run: (§1)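 Thermal stability, expressed as log-two fold change relative to solvent controls, is given from duplicates. Crude K562 extract in PBS pH 7.4 with 1 mM MgCl2, at 1 mg/mL protein, was treated with 10 μM compound for 30 min and heated in aliquots for 3 min across 48°C-58°C. After pooling, adjustment to 0.5% NP-40 at 4°C and centrifugation at 21,000xg for 90 min, supernatant protein was measured by TMTpro 16plex LC-MS/MS with channel sums equalised.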

[2] = compound: CC1=C(SC2=C1C(=N[C@H](C3=NN=C(N32)C)CC(=O)N)C4=CC=C(C=C4)Cl)C
How it was run: as §1

[3] = compound: CC1=C2C(=CC=C1)N=C(N(C2=O)C3=CC=CC=C3C)CN4C=NC5=C(N=CN=C54)N
How it was run: as §1

[4] = compound: Cc1sc2c(c1C)C(c1ccc(Cl)cc1)=N[C@@H](CC(=O)OC(C)(C)C)c1nnc(C)n1-2
How it was run: as §1

[5] = compound: c1ccc([C@@H]2C[C@H]2NC2CCNCC2)cc1
How it was run: as §1

Measured: log2 fold change

PSME1 (UniProt Q06323)
inactive: [1] 0.02 | [2] -0.006 | [3] -0.008 | [4] 0.002 | [5] 0.049

PTGES2 (UniProt Q9H7Z7)
inactive: [1] 0.166 | [2] -0.119 | [3] -0.101 | [4] -0.006 | [5] 0.014

PSMG3 (UniProt Q9BT73)
inactive: [1] -0.047 | [2] 0.01 | [3] 0.006 | [4] 0.017 | [5] 0.009

PSMC2 (UniProt P35998)
inactive: [1] -0.018 | [2] 0.016 | [3] 0.009 | [4] 0.095 | [5] 0.025

PTGES3 (UniProt Q15185)
inactive: [1] 0.016 | [2] -0.009 | [3] -0.004 | [4] 0.027 | [5] 0.007

PSMB2 (UniProt P49721)
inactive: [1] 0.063 | [2] -0.053 | [3] -0.023 | [4] -0.037 | [5] -0.065

PSMD14 (UniProt O00487)
inactive: [1] -0.022 | [2] 0.006 | [3] -0.034 | [4] 0.059 | [5] 0.04

PSMD7 (UniProt P51665)
inactive: [1] -0.005 | [2] 0.019 | [3] -0.007 | [4] -0.019 | [5] 0.016

Quoted from above (2 entries):
PTGES2 (UniProt Q9H7Z7)
inactive: [1] 0.166 | [2] -0.119 | [3] -0.101 | [4] -0.006 | [5] 0.014

PSMG3 (UniProt Q9BT73)
inactive: [1] -0.047 | [2] 0.01 | [3] 0.006 | [4] 0.017 | [5] 0.009

(further entries)

PSTPIP2 (UniProt Q9H939)
inactive: [1] 0 | [2] -0.01 | [3] 0.046 | [4] 0 | [5] 0.027

PTPA isoform 2 (UniProt Q15257)
inactive: [1] -0.004 | [2] 0.043 | [3] -0.007 | [4] 0.003 | [5] -0.003

PSMB3 (UniProt P49720)
inactive: [1] 0.031 | [2] -0.009 | [3] -0.006 | [4] -0.012 | [5] -0.005

PSMD5 (UniProt Q16401)
inactive: [1] -0.012 | [2] 0.009 | [3] 0.027 | [4] 0.02 | [5] -0.007

PTPRS isoform 3 (UniProt Q13332)
inactive: [1] 0.022 | [2] 0.027 | [3] 0.08 | [4] -0.069 | [5] 0.072

PRPS1 (UniProt B1ALA9)
inactive: [1] 0.027 | [2] 0.016 | [3] -0.011 | [4] 0.007 | [5] -0.027

PTK7 isoform 6 (UniProt Q13308)
inactive: [1] -0.073 | [2] -0.032 | [3] 0.03 | [4] -0.036 | [5] -0.049

PTRHD1 (UniProt Q6GMV3)
inactive: [1] -0.044 | [2] 0.041 | [3] 0.086 | [4] -0.017 | [5] 0.132

PTP4A1 (UniProt Q93096)
inactive: [1] 0.047 | [2] 0.006 | [3] 0.012 | [4] -0.01 | [5] 0.041

PSME3 isoform 2 (UniProt P61289)
inactive: [1] 0.018 | [2] -0.017 | [3] -0.003 | [4] -0.044 | [5] 0.016

PSAP isoform 3 (UniProt P07602)
inactive: [1] 0.018 | [2] -0.007 | [3] -0.033 | [4] -0.013 | [5] 0.033

PTDSS2 (UniProt Q9BVG9)
inactive: [1] 0.012 | [2] 0.05 | [3] 0.017 | [4] 0.026 | [5] -0.089

PSMD13 (UniProt Q9UNM6)
inactive: [1] -0.118 | [2] -0.046 | [3] -0.015 | [4] 0.031 | [5] 0.018

PUS10 (UniProt Q3MIT2)
inactive: [1] 0.024 | [2] -0.027 | [3] -0.007 | [4] -0.04 | [5] 0.052

PUS1 (UniProt Q9Y606)
inactive: [1] 0 | [2] 0.014 | [3] 0.013 | [4] -0.024 | [5] 0.029

PSMC5 (UniProt P62195)
inactive: [1] -0.006 | [2] 0.016 | [3] 0.008 | [4] 0.003 | [5] 0.075
